PubChem BioAssay AID743121, NCATS, 2013
In all, the deposit lists about 26,000 reagents; shown is an unselected part. Of all reagents, 167 (0.63%) got an active call. 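Calls are per gene from RSA p-values that are not deposited; an individual active-marked siRNA can sensitise only weakly.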 The numbers tell different reagents against one gene apart. Not all columns of the deposit are shown.

- Assay: 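Knock-downs that sensitise breast cancer cells to camptothecin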 (primary screen)
- Cell system: MDA-MB-231 cells, a human breast cancer line
- Knock-down reagent: single siRNA against human genes, 20 nM siRNA (0.8 pmol per well)
- Time to read-out: 120 h (drug added 48 h after transfection, read 72 h later)
- Treatment: camptothecin 20 nM (about EC30) for 72 h; vehicle 0.1% DMSO in parallel plates
- Detection: 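Cell viability by ATP luminescence (CellTiter-Glo) as % of non-targeting siRNA wells, and the log2 ratio of viability without drug over viability with camptothecin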
- Reading the numbers: log2 vehicle/camptothecin viability: higher = stronger sensitisation to camptothecin; viability with camptothecin: higher = more viable cells
- Units: viability with camptothecin in % of control
- Call rule: 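Each gene scored by redundant siRNA activity (RSA) over its individual siRNA ratios; a gene is called active at p < 0.001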

Silencing of GLP2R #1 resulted in: log2 vehicle/camptothecin viability -0.544; viability with camptothecin 103; inactive.
For GLP2R #2, the entry reads log2 vehicle/camptothecin viability -0.356; viability with camptothecin 82.7; inactive.
With knock-down of GLP2R #3 the results were log2 vehicle/camptothecin viability 0.239; viability with camptothecin 70.1; inactive.
Silencing of GLP2R #4 came out at: log2 vehicle/camptothecin viability -0.175; viability with camptothecin 98.5; inactive.
Silencing of HAND2 #1 came out at: log2 vehicle/camptothecin viability -0.773; viability with camptothecin 18.6; inactive.
After knock-down of HAND2 #2 the results were log2 vehicle/camptothecin viability -0.175; viability with camptothecin 109; inactive.
With knock-down of HAND2 #3, the screen gave log2 vehicle/camptothecin viability -0.497; viability with camptothecin 105; inactive.
Against HAND2 #4 the deposit lists log2 vehicle/camptothecin viability 0.604; viability with camptothecin 44.2; inactive.
For PDZRN3 #1, the entry reads log2 vehicle/camptothecin viability 0.709; viability with camptothecin 13.4; inactive.
After knock-down of PDZRN3 #2, the screen gave log2 vehicle/camptothecin viability -0.346; viability with camptothecin 96.6; inactive.
For PDZRN3 #3, the entry reads log2 vehicle/camptothecin viability 0.0353; viability with camptothecin 99; inactive.
For PDZRN3 #4, the values are log2 vehicle/camptothecin viability -0.199; viability with camptothecin 109; inactive.
Against ARSG #1, the values are log2 vehicle/camptothecin viability -0.13; viability with camptothecin 71.1; inactive.
After knock-down of ARSG #2, the screen gave log2 vehicle/camptothecin viability 0.304; viability with camptothecin 48.6; inactive.
ARSG #3 showed log2 vehicle/camptothecin viability 0.439; viability with camptothecin 40.7; inactive.
Silencing of ARSG #4 resulted in: log2 vehicle/camptothecin viability -0.0248; viability with camptothecin 75.8; inactive.
For MMP16 #1, the entry reads log2 vehicle/camptothecin viability 0.0914; viability with camptothecin 110; inactive.
Depletion of MMP16 #2 resulted in: log2 vehicle/camptothecin viability -0.331; viability with camptothecin 67.9; inactive.
For MMP16 #3, the values are log2 vehicle/camptothecin viability -0.05; viability with camptothecin 95.3; inactive.
For MMP16 #4 the deposit lists log2 vehicle/camptothecin viability -0.142; viability with camptothecin 116; inactive.
Against CCKBR #1 the deposit lists log2 vehicle/camptothecin viability 0.07; viability with camptothecin 96.6; inactive.
Against CCKBR #2 the deposit lists log2 vehicle/camptothecin viability 0.578; viability with camptothecin 42.6; inactive.
CCKBR #3 showed log2 vehicle/camptothecin viability -0.328; viability with camptothecin 111; inactive.
For CCKBR #4, the values are log2 vehicle/camptothecin viability -0.416; viability with camptothecin 47.7; inactive.
